No constants are given. Whether binding was seen depends on the method and setting. In cells and extracts the contact can be indirect. Some binding calls cover weakened binding; strength is not graded here.
Target: T1, Epidermal Growth Factor Receptor (EGFR), Drosophila, endogenous (Drosophila (endogenous in ovaries)) (UniProt P04412)
T1 sequence: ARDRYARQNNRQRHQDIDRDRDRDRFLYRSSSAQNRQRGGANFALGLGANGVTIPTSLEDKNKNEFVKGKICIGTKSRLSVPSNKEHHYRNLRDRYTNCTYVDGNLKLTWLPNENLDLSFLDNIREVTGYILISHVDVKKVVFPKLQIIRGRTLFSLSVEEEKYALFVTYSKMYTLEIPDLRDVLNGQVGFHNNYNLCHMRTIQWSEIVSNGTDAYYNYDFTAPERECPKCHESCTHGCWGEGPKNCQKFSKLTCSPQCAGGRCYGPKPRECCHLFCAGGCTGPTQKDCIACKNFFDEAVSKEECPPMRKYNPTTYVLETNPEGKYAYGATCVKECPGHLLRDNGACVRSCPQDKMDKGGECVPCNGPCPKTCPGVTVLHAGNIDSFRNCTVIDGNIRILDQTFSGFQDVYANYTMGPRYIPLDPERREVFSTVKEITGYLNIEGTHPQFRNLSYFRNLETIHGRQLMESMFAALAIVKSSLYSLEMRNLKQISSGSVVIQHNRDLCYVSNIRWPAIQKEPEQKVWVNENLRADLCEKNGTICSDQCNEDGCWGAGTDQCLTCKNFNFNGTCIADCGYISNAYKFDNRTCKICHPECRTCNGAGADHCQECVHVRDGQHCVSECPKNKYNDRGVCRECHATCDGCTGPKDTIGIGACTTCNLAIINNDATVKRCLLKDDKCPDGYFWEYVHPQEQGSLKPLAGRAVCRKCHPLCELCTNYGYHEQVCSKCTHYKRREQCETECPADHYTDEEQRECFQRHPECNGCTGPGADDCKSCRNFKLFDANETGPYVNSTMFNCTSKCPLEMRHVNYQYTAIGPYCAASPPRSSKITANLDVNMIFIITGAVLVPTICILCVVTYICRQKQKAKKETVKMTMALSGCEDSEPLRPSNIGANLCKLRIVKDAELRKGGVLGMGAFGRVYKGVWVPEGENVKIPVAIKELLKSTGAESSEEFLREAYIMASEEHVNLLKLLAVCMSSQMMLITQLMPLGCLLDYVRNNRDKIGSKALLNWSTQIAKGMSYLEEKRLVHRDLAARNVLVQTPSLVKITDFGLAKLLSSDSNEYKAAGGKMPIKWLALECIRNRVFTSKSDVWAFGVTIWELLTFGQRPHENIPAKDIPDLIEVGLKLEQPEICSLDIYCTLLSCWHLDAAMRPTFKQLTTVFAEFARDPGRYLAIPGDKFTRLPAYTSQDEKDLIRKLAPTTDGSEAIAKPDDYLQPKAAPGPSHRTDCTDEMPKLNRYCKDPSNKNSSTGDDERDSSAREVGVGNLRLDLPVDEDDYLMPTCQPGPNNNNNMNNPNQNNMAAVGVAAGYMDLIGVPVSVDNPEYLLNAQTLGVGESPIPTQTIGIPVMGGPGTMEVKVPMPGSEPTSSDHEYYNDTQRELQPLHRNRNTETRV
Assay: co-IP; ovarian lysates of wild-type females or females expressing D-CblL or RING-SH2^Drk in follicle cells, immunoprecipitated with mouse monoclonal anti-EGFR, 4°C; blotted with rabbit anti-EGFR and anti-Drk

By UniProt entry, the sequences of proteins in these tests, tags left out.
UniProt Q08012: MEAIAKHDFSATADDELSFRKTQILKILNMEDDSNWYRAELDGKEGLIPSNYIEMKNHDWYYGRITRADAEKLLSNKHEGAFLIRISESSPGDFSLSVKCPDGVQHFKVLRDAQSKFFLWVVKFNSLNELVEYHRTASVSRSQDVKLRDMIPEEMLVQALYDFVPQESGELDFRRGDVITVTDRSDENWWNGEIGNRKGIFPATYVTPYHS

- binding: binds
Substance: Drk (Downstream of receptor kinase), endogenous (from UniProt Q08012 1-211)

Reference: publication PMC3038869
